The record followed here is the supplement of paper PMC11006884.

Sequences of proteins named here, by UniProt entry; tags and fusion partners are left off. A change or cut given only in a name is not applied to a line headed by its entry.
UniProt Q9UHD8: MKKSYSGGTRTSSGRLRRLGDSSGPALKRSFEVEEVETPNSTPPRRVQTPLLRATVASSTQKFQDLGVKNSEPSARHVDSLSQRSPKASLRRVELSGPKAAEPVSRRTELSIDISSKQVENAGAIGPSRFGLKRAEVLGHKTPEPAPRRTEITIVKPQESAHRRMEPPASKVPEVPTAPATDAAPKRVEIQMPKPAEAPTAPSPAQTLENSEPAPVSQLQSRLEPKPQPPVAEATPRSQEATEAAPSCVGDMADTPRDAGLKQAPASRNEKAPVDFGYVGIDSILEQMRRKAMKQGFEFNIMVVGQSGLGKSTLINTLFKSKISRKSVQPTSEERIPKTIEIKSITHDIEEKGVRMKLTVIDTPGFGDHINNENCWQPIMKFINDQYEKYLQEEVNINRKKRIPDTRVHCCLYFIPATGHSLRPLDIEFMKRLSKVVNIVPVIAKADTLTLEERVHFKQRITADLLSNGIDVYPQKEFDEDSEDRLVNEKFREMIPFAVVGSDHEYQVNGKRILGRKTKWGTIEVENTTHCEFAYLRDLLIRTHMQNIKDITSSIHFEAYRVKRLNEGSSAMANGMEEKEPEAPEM
UniProt Q9ULK4: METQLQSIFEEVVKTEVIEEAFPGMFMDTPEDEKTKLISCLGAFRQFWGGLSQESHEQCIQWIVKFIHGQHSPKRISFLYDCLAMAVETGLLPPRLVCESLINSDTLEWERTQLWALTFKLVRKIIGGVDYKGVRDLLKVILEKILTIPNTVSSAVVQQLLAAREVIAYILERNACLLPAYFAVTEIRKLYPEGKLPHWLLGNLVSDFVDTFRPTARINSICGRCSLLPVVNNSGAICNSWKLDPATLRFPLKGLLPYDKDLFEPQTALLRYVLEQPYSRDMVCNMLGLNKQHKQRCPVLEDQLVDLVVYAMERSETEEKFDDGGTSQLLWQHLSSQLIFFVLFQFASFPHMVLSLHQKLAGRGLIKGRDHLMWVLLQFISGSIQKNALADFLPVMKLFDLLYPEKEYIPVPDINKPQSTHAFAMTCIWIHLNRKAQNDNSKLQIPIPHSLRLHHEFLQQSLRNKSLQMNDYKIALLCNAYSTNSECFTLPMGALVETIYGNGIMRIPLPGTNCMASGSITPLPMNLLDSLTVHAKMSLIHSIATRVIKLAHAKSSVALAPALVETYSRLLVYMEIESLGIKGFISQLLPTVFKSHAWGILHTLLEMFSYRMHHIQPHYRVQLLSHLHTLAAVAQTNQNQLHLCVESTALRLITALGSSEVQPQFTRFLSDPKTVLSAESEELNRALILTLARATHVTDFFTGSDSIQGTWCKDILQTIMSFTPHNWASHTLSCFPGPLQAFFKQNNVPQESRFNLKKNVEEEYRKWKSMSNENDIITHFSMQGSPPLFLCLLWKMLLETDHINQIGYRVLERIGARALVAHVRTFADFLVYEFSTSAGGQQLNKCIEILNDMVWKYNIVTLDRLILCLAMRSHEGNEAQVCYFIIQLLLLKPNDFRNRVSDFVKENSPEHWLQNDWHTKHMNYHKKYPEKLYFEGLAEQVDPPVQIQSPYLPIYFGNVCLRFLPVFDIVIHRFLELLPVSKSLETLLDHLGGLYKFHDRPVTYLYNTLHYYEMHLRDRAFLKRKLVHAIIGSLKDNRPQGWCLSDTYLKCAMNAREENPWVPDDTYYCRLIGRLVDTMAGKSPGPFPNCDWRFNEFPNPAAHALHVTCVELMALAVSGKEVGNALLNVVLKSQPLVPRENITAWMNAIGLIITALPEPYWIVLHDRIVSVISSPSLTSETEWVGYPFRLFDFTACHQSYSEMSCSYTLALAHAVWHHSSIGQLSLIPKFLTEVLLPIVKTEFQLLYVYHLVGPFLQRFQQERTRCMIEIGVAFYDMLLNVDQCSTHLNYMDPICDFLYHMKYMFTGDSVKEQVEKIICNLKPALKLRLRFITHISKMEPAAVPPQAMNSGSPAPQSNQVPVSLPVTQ
UniProt Q9UHR6: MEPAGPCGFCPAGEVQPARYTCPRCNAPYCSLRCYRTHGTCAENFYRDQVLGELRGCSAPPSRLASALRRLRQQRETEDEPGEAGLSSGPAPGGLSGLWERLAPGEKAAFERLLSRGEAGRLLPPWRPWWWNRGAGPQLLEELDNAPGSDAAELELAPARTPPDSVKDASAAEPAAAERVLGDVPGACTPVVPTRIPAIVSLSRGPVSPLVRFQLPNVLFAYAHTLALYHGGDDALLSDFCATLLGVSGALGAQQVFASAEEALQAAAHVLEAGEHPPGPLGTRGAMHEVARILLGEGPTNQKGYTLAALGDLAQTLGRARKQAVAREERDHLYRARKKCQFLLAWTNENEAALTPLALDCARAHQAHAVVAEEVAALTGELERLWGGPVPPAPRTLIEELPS
UniProt Q9UPQ9, whole entry: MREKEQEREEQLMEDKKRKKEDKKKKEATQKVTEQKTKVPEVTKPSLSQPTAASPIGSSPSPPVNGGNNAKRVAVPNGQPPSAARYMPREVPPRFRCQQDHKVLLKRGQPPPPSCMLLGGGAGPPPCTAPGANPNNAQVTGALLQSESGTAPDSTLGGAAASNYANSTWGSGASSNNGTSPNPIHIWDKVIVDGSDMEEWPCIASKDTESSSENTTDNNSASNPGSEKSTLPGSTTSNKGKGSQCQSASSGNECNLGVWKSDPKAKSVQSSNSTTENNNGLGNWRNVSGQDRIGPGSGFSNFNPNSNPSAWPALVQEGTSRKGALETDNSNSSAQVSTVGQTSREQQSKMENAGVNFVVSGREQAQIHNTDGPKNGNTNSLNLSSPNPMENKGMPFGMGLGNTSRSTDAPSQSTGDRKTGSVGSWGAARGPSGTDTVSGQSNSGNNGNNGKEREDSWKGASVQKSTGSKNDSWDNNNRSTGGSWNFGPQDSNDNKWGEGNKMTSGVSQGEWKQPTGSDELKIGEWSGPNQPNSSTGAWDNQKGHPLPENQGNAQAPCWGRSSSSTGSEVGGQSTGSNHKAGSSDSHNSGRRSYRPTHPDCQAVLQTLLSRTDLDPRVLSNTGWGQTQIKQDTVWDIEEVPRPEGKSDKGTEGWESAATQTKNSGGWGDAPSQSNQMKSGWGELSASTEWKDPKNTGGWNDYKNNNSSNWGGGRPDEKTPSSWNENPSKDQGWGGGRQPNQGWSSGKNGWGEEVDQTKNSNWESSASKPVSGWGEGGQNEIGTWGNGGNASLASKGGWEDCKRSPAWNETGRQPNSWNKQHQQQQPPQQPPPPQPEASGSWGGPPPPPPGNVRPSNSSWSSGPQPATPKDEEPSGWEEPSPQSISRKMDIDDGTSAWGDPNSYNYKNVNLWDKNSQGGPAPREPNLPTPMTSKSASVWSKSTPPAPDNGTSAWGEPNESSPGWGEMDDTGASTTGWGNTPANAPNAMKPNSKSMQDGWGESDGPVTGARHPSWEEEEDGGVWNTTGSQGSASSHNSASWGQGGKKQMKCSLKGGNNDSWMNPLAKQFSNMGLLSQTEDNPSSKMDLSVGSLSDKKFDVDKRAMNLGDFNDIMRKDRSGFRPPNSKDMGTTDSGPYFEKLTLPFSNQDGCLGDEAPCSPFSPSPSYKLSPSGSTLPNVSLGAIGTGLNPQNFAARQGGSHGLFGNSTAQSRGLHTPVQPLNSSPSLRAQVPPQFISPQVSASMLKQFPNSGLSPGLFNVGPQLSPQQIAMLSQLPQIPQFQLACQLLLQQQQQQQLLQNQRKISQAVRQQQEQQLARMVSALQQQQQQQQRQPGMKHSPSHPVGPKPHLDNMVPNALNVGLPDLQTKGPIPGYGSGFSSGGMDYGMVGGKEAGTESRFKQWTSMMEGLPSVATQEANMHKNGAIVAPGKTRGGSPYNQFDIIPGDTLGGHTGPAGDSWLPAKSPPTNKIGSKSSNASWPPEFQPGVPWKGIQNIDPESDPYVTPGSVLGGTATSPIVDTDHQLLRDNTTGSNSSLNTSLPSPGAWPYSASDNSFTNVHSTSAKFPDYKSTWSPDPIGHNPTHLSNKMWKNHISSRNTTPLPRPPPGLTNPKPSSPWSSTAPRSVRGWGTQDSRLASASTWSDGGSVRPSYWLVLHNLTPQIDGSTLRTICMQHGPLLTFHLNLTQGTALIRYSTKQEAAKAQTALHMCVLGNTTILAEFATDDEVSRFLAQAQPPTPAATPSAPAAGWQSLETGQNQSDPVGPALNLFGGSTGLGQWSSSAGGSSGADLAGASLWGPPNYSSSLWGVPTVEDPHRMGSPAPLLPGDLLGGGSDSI
UniProt Q9Y3Z3: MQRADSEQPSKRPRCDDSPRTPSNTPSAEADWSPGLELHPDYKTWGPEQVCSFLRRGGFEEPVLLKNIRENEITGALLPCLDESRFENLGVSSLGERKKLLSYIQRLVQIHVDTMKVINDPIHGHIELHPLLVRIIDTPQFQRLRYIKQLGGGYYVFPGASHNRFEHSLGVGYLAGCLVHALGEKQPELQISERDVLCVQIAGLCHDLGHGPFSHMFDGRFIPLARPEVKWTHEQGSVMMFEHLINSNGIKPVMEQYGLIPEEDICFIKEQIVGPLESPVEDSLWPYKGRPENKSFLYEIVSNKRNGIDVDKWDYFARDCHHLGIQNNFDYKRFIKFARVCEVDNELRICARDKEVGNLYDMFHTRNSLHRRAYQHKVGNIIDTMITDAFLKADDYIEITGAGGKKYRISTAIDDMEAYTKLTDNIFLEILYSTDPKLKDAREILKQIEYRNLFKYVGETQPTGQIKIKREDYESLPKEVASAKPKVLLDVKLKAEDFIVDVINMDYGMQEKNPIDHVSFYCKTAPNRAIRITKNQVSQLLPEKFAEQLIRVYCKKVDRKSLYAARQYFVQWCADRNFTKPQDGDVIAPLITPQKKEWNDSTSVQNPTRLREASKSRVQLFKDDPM
UniProt Q9Y2A7: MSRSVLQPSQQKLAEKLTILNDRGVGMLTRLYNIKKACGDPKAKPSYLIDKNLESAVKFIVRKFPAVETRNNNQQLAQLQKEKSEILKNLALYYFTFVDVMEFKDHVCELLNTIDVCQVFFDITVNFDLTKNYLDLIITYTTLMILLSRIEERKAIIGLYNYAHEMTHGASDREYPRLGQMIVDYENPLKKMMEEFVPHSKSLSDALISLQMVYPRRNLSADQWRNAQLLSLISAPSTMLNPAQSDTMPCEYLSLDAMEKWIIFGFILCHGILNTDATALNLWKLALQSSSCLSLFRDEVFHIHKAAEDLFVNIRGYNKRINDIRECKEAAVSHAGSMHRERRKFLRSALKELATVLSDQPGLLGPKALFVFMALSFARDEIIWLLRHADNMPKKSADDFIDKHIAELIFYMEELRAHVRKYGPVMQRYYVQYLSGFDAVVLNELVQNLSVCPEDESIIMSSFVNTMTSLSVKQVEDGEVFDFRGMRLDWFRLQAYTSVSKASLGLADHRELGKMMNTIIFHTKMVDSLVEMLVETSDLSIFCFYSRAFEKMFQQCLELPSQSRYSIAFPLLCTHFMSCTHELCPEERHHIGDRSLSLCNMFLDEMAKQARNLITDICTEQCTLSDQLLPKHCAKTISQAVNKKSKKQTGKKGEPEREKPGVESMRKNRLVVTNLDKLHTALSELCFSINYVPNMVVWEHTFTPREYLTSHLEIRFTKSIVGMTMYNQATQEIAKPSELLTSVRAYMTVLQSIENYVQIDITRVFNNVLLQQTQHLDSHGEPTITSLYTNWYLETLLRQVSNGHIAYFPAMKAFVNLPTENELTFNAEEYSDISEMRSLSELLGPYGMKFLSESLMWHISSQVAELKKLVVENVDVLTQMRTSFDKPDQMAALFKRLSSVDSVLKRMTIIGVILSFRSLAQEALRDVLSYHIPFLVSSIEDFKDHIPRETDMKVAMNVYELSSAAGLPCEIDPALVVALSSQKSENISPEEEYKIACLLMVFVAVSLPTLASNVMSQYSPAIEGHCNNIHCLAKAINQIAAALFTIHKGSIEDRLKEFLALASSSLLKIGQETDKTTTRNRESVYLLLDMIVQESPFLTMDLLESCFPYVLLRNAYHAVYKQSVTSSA
UniProt Q9Y2X3: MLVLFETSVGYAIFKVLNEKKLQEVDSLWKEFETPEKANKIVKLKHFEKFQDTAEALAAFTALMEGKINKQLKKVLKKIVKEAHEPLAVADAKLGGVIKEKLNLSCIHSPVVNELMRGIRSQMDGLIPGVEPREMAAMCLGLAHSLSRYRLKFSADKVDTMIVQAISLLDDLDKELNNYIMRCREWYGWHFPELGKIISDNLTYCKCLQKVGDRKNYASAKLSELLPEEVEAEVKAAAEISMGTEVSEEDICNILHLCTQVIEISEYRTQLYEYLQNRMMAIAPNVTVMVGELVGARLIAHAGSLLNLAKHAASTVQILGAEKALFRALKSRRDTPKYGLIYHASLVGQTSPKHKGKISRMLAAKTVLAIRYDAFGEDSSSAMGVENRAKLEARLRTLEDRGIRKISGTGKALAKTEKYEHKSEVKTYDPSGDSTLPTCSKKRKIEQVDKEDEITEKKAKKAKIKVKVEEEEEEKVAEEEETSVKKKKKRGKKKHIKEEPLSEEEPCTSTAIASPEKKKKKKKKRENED

This is a selection; strong and weak results do not stand in their true shares.

Compound in this test: COC(=O)C#Cc1ccccc1 [methyl 3-phenylpropiolate]
Briefly: log2 ratio of iodoacetamide-alkyne labeling of the cysteine site, DMSO over compound (competition); higher = stronger covalent engagement of the cysteine by the compound, active = 1 or more. As to conditions: 500 µM; treatment time 1 h; system: HEK293T cell lysate. An outline of the steps:
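The log2 competition ratio per cysteine is defined as mean reporter intensity in control channels over mean reporter intensity in compound channels. Lysate from HEK293T cells (2 mg/mL) received electrophile (500 µM) or vehicle for 1 h at ambient temperature, followed by iodoacetamide alkyne for 1 h. Samples were clicked to sCIP-TMT reagents, pooled, trypsin-digested overnight at 37 °C, streptavidin-enriched, acid-eluted and run on Orbitrap Eclipse LC-MS/MS with FAIMS, with quantification in FragPipe. Three replicates with duplicate channels were used, and any cysteine quantified in only one replicate was excluded.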
With UniProt Q9UHD8_C531, the “log2 ratio of iodoacetamide-alkyne labeling” value (from here on “log2 ratio”) is inactive: 0.77. For the target TLN1 C1023 (UniProt Q9Y490), the “log2 ratio” value was inactive: 0.0201. In the case of UniProt Q9Y3L5_C140, the “log2 ratio” value was inactive: 0.267. Consider STRAP C305 (UniProt Q9Y3F4), for which the “log2 ratio” value is inactive: 0.0837. With MED23 C1043 (UniProt Q9ULK4) the figure was inactive: 0.807. The result for BCAP29 C171 (UniProt Q9UHQ4) reads active: 1.1.

Take MACF1 C7245 (UniProt Q9UPN3): the “log2 ratio” value was inactive: 0.571. With NUDC C188 (UniProt Q9Y266) the figure was inactive: 0.133. With ZNHIT2 C188 (UniProt Q9UHR6) the figure was inactive: 0.218. Regarding GSTK1 C176 (UniProt Q9Y2Q3), the “log2 ratio” value was inactive: 0.387. Regarding TNRC6B C600 (UniProt Q9UPQ9), the “log2 ratio” value is inactive: 0.638. Consider SAMHD1 C522 (UniProt Q9Y3Z3), for which the “log2 ratio” value is inactive: 0.0954.

Turning to NCKAP1 C618 (UniProt Q9Y2A7), the “log2 ratio” value was inactive: 0.408. The result for DLGAP4 C736 (UniProt Q9Y2H0) reads inactive: 0.69; that for NOP58 C139 (UniProt Q9Y2X3), inactive: 0.118.
